Laboratory results as given in CN108948200A.
Results are given in words; binding and its absence hold for the method and conditions named. Some binding calls cover weakened binding; strength is not graded here.

Chains of the proteins cited; added tags and fusions are not shown. Residues count along the entry.
UniProt P07333, residues 20-512: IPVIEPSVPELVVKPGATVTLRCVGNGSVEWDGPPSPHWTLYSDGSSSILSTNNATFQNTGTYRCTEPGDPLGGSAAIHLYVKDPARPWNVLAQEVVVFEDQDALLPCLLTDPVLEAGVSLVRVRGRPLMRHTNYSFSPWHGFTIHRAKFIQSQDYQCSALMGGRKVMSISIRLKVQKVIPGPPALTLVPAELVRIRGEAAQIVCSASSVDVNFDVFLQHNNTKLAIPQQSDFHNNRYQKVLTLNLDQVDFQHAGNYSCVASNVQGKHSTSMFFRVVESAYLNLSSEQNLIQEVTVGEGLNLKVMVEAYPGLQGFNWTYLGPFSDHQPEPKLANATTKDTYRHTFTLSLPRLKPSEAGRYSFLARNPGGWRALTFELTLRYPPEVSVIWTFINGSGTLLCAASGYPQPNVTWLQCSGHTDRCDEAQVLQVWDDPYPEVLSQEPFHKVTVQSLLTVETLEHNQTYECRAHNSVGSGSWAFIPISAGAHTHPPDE

Tests used:
生物素标记人CSF1R Fc蛋白 (human) = 生物素标记人CSF1R Fc蛋白 (human) (UniProt P07333); test: capture ELISA with biotinylated human CSF1R Fc and flow cytometry on 293F cells over-expressing human CSF1R (Table 2, not shown)
[1] = target: 重组人CSF1R带his标签的蛋白 (human) (UniProt P07333); test: ELISA of hybridoma supernatant on coated human CSF1R-his

B1: 2E10 抗人CSF-1R小鼠单克隆抗体 (antibody, V domains shown)
VH: DVQLVDSGGGLVQPGGSRKLSCAASGFTFSSFGMHWVRQAPEKGLEWVAYISSGSNTIYYADTVKGRFTISRDNPKNTLFLQMTSLRSEDTAIYYCARWYGNYNYYAMDYWGQGTSVTVSS
VL: DIQMTQSPASLSASVGETVTITCGASENIYGTLNWYQRKQGKSPQLLIYGATNLADGLSSRFSGSGSGRQYSLKISSLHPDDIATYYCQNVLGIPFTFGSGTKLEIK
Q: With B1 as the binder, how does the binding (生物素标记人CSF1R Fc蛋白 (human)) read?
A: binds

Q: And the binding [1]?
A: binds
